Measured values published in PMC6548132, “Engineered SUMO/protease system identifies Pdr6 as a bidirectional nuclear transport receptor” (The Journal of Cell Biology, 2019).
No constants are given. Whether binding was seen depends on the method and setting. In cells and extracts the contact can be indirect. Some entries that bind do so weakly or less than the wild type. Sequences can lack the tags named with a protein.

T1: H14-ZZ-NEDD8–tagged Ubc9 (yeast (S. cerevisiae)) (UniProt P50623)
T1 sequence: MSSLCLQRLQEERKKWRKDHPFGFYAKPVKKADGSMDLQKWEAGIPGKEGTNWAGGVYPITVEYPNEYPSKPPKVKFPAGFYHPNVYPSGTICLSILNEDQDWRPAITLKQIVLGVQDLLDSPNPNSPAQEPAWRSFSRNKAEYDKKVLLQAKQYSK

B1: eGFP-tagged Pdr6 in E. coli lysate (protein, UniProt P32767 1-1081)
chain: MSSIHEVVALIEELYSPHPKHDVNQIQQSLQSIQKSEQGFHLANELLSDDKYSANVKYFGALTLTVQLNTRGENDYETLWNVFRSNLLYLTKFSTLYVSNPNMYGQSLIIIKKLMSNLSLIFTKINDPQLNNAGNENMIKQWNNPINTFIQLMSVQNQNINADQLLLDSINCSLTYEQLSQFVSLSQKHNELALTFTEVIVEDLTKFQTKRHSMSQIHEVVHEHLYISTMALINLNLTAQAVFNPTVFDCITAWINYISLTRSVSSSGRMDLSEIFQNLIDLMYQSTEGSDGYENAEKILTIFGNVFANDPLLMSYDLRQQIECIFLGVVRPDSGITDISNKNSWMLQYMNYLVTNDFFSELKELAICIVDFLQINTLSVCNKLFTNIQAADNGQVQDEYIQEYIKVLLQMTNFPLTPVLQEFFSVRMVDFWLDLSDAYTNLASETLRPNSIELSTQIFQQLINIYLPKISLSVKQRIIEEEGESTSVNEFEDFRNAVSDLAQSLWSILGNDNLTNVLIDGMGQMPAASDETLIIKDTDVLFRIETMCFVLNTILVDMTLSESPWIKNIVDANKFFNQNVISVFQTGFQTSASTKVSQILKLDFVRTSTTLIGTLAGYFKQEPFQLNPYVEALFQGLHTCTNFTSKNEQEKISNDKLEVMVIKTVSTLCETCREELTPYLMHFISFLNTVIMPDSNVSHFTRTKLVRSIGYVVQCQVSNGPEEQAKYILQLTNLLSGSIEHCLASSVQLQEQQDYINCLLYCISELATSLIQPTEIIENDALLQRLSEFQSFWSSDPLQIRSKIMCTIDKVLDNSIYCKNSAFVEIGCLIVGKGLNLPDGEPYFLKYNMSEVMNFVLRHVPNCELATCLPYFVYLLEKLISEFRKELTPQEFDFMFEKILLVYYDAYIINDPDLLQMTIGFVNNVLDVKPGLAIGSKHWTSFILPQFLKLIPSREKFTIVAVAKFWTKLINNKKYNQEELTTVRQQVSSIGGDLVYQIMYGLFHTQRSDLNSYTDLLRALVAKFPIEAREWLVAVLPQICNNPAGHEKFINKLLITRGSRAAGNVILQWWLDCTTLPNYQG
B2: Mtr10 (eGFP-tagged, E. coli lysate) (protein, UniProt Q99189 1-972)
chain: MDNLQVSDIETALQCISSTASQDDKNKALQFLEQFQRSTVAWSICNEILSKEDPTNALLELNIFAAQTLRNKVTYDLSQLENNLPQFKDSLLTLLLSHNQKLIITQLNVALARLAIQFLEWQNPIFEIISLLNSSPSILLNFLRILPEETLDIASTSLTEVEFNSRIHELIDPIAEDVLKFLVSCIDLLQNTDGNSSSSISLEQILRCLNSWSYEFPVEQLLTVQPLINLVFETISNGNESDMEAFDSAIDCLCVILRESRDTTNEQLISALFHQLMLLQEKLLPTLFTDHPLNDEYDDDLLEGMTRLFVEAGEAWSVVISKNPDFFKPMVLVLLMLTCKNEDLDVVSYTFPFWFNFKQSLVLPRYQESRKAYSDIFVKLINGIITHLQYPSGQFSSKEEEDKFKDFRYHMGDVLKDCTAVVGTSEALSQPLIRIKSAIENNNSWQIMEAPLFSLRTMAKEISLTENTILPEIIKIICNLPEQAKIRYASTLVLGRYTEWTAKHPELLEVQLQYIFNGFQLHEGSSDMQSIITASSHALMFFCSDCSKLLVGYIDQLINFFLNVQSSIDIESQFELCQGLSAVINNQPEAKVSVIFQKLVDDNLRQIEALIPQWKANPTLLAPQIADKIDLLYALFEELKPRYNYPQQGSEPLLPRIEFIWKALRTLLVDAGAMTDSIIVERVAKLLRRIFERFHVFCEPILPSVAEFLIQGYLTTGFGSYLWCSGSLIVIFGDDESFPISPSLKDAVWKFALSQCETFILNFNKFDKLQLNDYHEAIIDFFSLISDLIMFYPGAFLNSTELLGPVLNVALECVNKLDNYDAYICILRCLDDIISWGFKTPPISTVSIEIVPDEWRKQVINEVVIAHGNQLILVLFIGLVTTFENTAHSDAISCIVKCLRILTEANNNDATICIDWIYKVVEQLGQVTLNERDNLAKAVVEGLNSKDYRKVREGIRAFVGWYSRKNINSRFE
B3: Msn5 (eGFP-tagged, E. coli lysate) (protein, UniProt P52918 1-1224)
chain: MDSTGASQIVSALDVIYSPKSNNSQRQEAQKFLDEVKLCSESPFWGYEIALQNPTNSILKYFGLGLLDHAVKKNWNDYDEGKRVALRKWVMELNFGVQDYDTRYIKEKLATLWVEVAKRTWGEALKQTNPTEEQLLTSWVDMDNNLFELWNINQSSRELALIIFRILFEDVFLLDDLIVLKRMTVIQPLCVMIVCPIEVFAIKYKFSDKWTKFKANEEGWFSVWIPELNNALQQNNSEYIIRLLETLKTCLNWPLTEVIVRNDVLSSLLTCLSSNIPRAQSMALDSIHILLTRPYSNESHYQMTIDRVFDNMDLLDSVYESLLFDPTDDIDETKYPIIKKFVDMISCLYVCVPKIKETNGQIQKYFKLVLKTTYNPSLIVSGLTLDLWCTCLRNDEYLPKLEKYVIPDLLQFAADALVYYEQIDGHISKKFAEIDFQSKSEFQTFCSTYRKRIRDIIRLISCVELDLTYDWLNNRLNNYFSSPFGQQVLSSTFLDHKLEPYLGALSQYMIVECFINGCIRWKIWYPTGDDYDEKLDSILQKLEILSNQLIALNLREPLLLKKQIQNFALFLTMLKDNVLFTLLEKIITSATMDYPEINLEERGAESDAVRDLRYACGIELNRMALLMPESLKKIYPDLESVIARIMPNLSYHEKISFKSFLLIIVLKSSLDMKEERFAAIVDPELLAWSDKTTVVGLSDLHWFMERLGIVQIAEYFQRRDIDENSDLLSIPIDDEGKELKSELTKRWQSLFPVRATRMFIHYSMQSIKTDEEFKMLQDLWRPRIVPILPYITRLLYQLQSYHDPDNWKGLPTVVQSFVKYSTIERFWEAGASNKSKDEFIDEHMKAMQTLRDFADSVGHIIRYTREYTLLVLSAISSLGSVFYLLDESPDLLLNSIAIFKPGSNEISPGVSTHGWKHIMNIAIRPILKGCPKDCLGKFMPAFLPKLFEILDLLLCQKWSSHMNDMDMNPVPTDDDQMTEEILEENLLRQLTTVVVRIVIDCVGQGNANPNSAKSRLNNHQMEMRKIIFNDLNTLAPFLKLLNHLISFKDTKCSFNSILVMKCCLTSVLNQNNTVDEYFTFEVMKNLLLNVLCNSAFKDSFHEALYAFTVIFLTLCKEYPSARAFLFEISNGYNIDELYRNLRSVDEYKTQRALMIDFIDWVKSTSGKEDGNVDHAGDERKRQEKREAILKKANERLIKKNKENGDMLDDPNIEDGAVGNLFDDN
B4: Nmd5 (eGFP-tagged, E. coli lysate) (protein, UniProt P46970 1-1048)
chain: MDITELLQCFACTLDHNAAVRTNAETHLKNASKVPGFLGACLDIIAADEVPENIKLSASLYFKNKITYGWSAGARQGSNELLDSHVDPDEKPVVKDMLIKTMVSVSKTSPRCIRVLKSALTVIISEDYPSKKWGNLLPNSLELLANEDITVTYVGLLCLAEIFRTYRWKNNDERQDLEELILNYFPALLNYGANVLFQDGKYMNNEQIGELVKLIIKIYKFVSYHDLPFTLQRSESFTPWACFFVSIIQQPLPQEVLAISDIEVRSKNPWVKCKKWALANLYRLFQRYASTSLTRKFQYDEFKQMYCEEFLTQFLQVVFDQIEKWGTGQLWLSDECLYYILNFVEQCVVQKTTWKLVGPHYNVILQHVIFPLLKPTAETLEAFDNDPQEYINRNMDFWDVGYSPDLAALALLTTCVTKRGKTTLQPTLEFMVSTLQSAVGDYNNIMLDNALQIESCLRIFSSIIDRLITKDSPFASEMEKFILTYVLPFFKSQYGFLQSRVCDICSKLGSMDFKDPVITSTIYEGVMNCLNNSSNSLPVELTAALALQTFISDDQFNMKLSEHVVPTMQKLLSLSNDFESDVISGVMQDFVEQFAEQLQPFGVELMNTLVQQFLKLAIDLHETSNLDPDSFTNVDSIPDESDKQMAALGILSTTISILLSFENSPEILKNLEQSFYPAAEFILKNDIEDFYRECCEFVENSTFLLRDITPISWKILELIGECNRKPDSMVSYYLSDFMLALNNILIYGRNELKKNEFYTKIIFEIYQKAVTAEDNSLDDLRVVFDLSQELVLALDDSLPQQYRERLLADVVGSILTQKNELKTNVVFSVTAFNVVISNMITEPLITLQYLKQQGCLEIFFQTWITDYIPNYKRCYDIKLSVLALLKIILKLESNDYSVLNLENLVPQLGSIVTQLASRLPTALRQLANQRKEFSSSGFEEDTKWDENFLDVGDDDENDDEGDLTEKYLELIKNRADSLDFVDGYDAKETFDDLEEDPLTGSILDTVDVYKVFKESIANLQHVDSNRYQGILRHLTPADQELFMGIMNA
B5: Yrb4 (eGFP-tagged, E. coli lysate) (protein, UniProt P40069 1-1113)
chain: MDQQFLSQLEQTLHAITSGVGLKEATKTLQTQFYTQPTTLPALIHILQNGSDDSLKQLAGVEARKLVSKHWNAIDESTRASIKTSLLQTAFSEPKENVRHSNARVIASIGTEELDGNKWPDLVPNLIQTASGEDVQTRQTAIFILFSLLEDFTSSLSGHIDDFLALFSQTINDPSSLEIRSLSAQALNHVSALIEEQETINPVQAQKFAASIPSVVNVLDAVIKADDTMNAKLIFNCLNDFLLLDSQLTGNFIVDLIKLSLQIAVNSEIDEDVRVFALQFIISSLSYRKSKVSQSKLGPEITVAALKVACEEIDVDDELNNEDETGENEENTPSSSAIRLLAFASSELPPSQVASVIVEHIPAMLQSANVFERRAILLAISVAVTGSPDYILSQFDKIIPATINGLKDTEPIVKLAALKCIHQLTTDLQDEVAKFHEEYLPLIIDIIDSAKNIVIYNYATVALDGLLEFIAYDAIAKYLDPLMNKLFYMLESNESSKLRCAVVSAIGSAAFAAGSAFIPYFKTSVHYLEKFIQNCSQIEGMSEDDIELRANTFENISTMARAVRSDAFAEFAEPLVNSAYEAIKTDSARLRESGYAFIANLAKVYGENFAPFLKTILPEIFKTLELDEYQFNFDGDAEDLAAFADSANEEELQNKFTVNTGISYEKEVASAALSELALGTKEHFLPYVEQSLKVLNEQVDESYGLRETALNTIWNVVKSVLLASKVEPESYPKGIPASSYVNADVLAVIQAARETSMGNLSDEFETSMVITVMEDFANMIKQFGAIIIMDNGDSSMLEALCMQVLSVLKGTHTCQTIDIEEDVPRDEELDASETEATLQDVALEVLVSLSQALAGDFAKVFDNFRPVVFGLFQSKSKNKRSSAVGAASELALGMKEQNPFVHEMLEALVIRLTSDKSLEVRGNAAYGVGLLCEYASMDISAVYEPVLKALYELLSAADQKALAAEDDEATREIIDRAYANASGCVARMALKNSALVPLEQTVPALLAHLPLNTGFEEYNPIFELIMKLYQENSPVITNETPRIIEIFSAVFTKENDRIKLEKESTLGREENMERLKQFQTEEMKHKVIELLKYLNTTYNGIVAQNPVLAAVIA

Molecular target: T1, H14-ZZ-NEDD8–tagged Ubc9 (yeast (S. cerevisiae))
Assay: pull-down; H14-ZZ-NEDD8-Ubc9 added to E. coli lysates each containing 3 µM of a different eGFP-tagged yeast NTR; anti-ZZ/ED affibody matrix, elution by tag cleavage; SDS-PAGE/Coomassie; only the target purified

Binder | binding
B1 | binds
B2 | no binding (tested: 3 µM)
B3 | no binding (tested: 3 µM)
B4 | no binding (tested: 3 µM)
B5 | no binding (tested: 3 µM)
